The values that follow come from PMC6943125.

Results are given in words; binding and its absence hold for the method and conditions named. Binding seen in cells or lysates may run through a third protein. Tags and fused reporters may be left off the sequences shown.

This assay concerns the target T1, GST-DHX30 (human) (UniProt Q7L2E3).
T1 sequence: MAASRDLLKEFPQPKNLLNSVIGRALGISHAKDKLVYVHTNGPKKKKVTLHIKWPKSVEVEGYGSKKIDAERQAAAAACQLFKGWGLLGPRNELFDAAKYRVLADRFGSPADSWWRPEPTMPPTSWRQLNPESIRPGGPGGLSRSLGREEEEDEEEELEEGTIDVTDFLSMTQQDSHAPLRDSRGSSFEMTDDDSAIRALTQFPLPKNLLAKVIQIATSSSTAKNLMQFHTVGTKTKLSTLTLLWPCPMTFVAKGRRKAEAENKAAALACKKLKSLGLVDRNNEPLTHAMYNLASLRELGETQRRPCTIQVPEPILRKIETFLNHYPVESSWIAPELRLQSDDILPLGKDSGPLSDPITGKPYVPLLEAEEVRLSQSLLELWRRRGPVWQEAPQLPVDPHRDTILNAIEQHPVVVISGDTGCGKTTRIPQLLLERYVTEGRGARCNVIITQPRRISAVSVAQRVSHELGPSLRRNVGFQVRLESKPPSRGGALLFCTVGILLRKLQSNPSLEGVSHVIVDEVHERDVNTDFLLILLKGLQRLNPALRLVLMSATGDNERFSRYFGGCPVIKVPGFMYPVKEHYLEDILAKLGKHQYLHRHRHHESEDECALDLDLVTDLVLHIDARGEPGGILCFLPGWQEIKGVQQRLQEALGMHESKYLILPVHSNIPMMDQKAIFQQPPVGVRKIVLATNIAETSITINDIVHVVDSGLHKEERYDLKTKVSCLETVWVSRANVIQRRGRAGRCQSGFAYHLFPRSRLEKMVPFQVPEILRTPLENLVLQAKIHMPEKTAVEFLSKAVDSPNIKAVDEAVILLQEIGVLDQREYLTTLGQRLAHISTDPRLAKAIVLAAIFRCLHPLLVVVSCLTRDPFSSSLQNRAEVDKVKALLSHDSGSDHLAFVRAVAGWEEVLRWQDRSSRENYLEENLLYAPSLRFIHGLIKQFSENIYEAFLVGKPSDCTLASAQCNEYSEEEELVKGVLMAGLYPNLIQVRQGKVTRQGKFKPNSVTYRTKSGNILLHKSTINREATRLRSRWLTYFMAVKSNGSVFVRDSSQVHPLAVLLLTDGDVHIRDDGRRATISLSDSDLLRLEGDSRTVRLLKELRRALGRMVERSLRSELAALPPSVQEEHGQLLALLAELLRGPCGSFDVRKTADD
The assay can be described thus: pull-down.

For “M1 (matrix protein) of Ud virus (influenza A virus (Ud virus))”, the binding entry is given as “no binding”.
For “NP (nucleoprotein) of Ud virus (influenza A virus (Ud virus))”, the binding result is on record as “no binding”.
On to “PA viral polymerase subunit of Ud virus (influenza A virus (Ud virus))”, for which the binding result is reported as “no binding”.
As for “PB1 viral polymerase subunit of Ud virus (influenza A virus (Ud virus))”, the binding result is recorded as “no binding”.
For the substance “PB2 viral polymerase subunit of Ud virus (influenza A virus (Ud virus))”, the binding result is “no binding”.
